Drawing on PMC6986101, this text covers binding for eight substances.

Sequences of proteins named here, by UniProt entry; tags and fusion partners are left off. A change or cut given only in a name is not applied to a line headed by its entry. Residues count along the entry.
UniProt P40939, residues 37-763: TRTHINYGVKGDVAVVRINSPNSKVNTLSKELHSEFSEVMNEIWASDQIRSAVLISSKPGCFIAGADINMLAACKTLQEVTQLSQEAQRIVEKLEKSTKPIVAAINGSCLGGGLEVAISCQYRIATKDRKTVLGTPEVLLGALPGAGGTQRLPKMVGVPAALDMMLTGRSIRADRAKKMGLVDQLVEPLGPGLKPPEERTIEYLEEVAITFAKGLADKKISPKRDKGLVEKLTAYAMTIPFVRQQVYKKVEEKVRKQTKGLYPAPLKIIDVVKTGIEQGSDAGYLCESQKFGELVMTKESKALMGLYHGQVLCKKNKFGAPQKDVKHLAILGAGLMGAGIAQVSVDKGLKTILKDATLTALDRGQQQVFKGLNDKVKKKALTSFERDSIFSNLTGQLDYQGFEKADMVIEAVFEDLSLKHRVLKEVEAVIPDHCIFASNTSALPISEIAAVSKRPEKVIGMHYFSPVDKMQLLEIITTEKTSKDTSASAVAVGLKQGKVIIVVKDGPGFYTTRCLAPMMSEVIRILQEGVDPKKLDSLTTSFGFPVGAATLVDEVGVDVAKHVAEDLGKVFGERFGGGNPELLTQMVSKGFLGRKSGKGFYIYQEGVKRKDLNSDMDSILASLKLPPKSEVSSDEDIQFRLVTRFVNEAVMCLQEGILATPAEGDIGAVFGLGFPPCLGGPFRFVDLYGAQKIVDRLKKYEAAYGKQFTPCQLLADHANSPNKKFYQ
UniProt O43464: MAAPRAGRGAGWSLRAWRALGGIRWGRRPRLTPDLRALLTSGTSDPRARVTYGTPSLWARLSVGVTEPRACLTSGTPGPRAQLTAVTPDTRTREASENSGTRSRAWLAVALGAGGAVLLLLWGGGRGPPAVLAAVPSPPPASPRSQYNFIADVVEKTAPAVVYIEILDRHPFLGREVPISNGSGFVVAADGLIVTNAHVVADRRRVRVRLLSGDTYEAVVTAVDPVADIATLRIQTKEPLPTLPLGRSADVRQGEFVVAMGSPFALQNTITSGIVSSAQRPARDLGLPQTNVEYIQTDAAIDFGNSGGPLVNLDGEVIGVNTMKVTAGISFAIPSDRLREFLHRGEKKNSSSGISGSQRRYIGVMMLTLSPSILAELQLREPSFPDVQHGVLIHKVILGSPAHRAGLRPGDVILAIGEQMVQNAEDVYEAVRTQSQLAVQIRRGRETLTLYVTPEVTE
UniProt Q9BXM7, residues 78-581: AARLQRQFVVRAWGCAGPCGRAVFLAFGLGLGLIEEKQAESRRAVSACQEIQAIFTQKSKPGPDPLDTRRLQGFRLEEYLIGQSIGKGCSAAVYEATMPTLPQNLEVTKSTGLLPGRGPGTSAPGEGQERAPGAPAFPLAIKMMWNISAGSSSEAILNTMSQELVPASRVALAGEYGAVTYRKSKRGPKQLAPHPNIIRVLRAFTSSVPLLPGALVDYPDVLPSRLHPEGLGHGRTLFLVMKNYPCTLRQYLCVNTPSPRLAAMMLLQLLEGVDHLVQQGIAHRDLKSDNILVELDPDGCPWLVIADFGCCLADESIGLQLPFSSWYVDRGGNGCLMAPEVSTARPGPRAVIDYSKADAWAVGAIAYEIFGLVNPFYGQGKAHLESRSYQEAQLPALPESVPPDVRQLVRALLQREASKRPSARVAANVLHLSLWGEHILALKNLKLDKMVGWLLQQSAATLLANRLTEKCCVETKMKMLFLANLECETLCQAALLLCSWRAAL
UniProt P31040, residues 43-664: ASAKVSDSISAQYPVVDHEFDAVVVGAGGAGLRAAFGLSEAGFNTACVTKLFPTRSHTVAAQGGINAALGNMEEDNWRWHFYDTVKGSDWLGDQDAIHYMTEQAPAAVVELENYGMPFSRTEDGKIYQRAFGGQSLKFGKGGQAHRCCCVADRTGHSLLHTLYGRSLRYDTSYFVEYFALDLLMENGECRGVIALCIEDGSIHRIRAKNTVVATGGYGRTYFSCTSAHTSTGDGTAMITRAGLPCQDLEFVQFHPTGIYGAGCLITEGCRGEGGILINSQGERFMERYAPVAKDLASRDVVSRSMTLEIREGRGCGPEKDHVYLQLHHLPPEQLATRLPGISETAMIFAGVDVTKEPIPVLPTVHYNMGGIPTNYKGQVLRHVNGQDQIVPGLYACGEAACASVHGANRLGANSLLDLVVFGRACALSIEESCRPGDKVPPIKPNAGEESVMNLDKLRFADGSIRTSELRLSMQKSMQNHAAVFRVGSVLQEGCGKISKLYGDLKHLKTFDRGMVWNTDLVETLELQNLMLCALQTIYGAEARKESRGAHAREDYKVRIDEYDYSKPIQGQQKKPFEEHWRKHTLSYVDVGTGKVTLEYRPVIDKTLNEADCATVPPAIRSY
UniProt P30405, residues 30-207: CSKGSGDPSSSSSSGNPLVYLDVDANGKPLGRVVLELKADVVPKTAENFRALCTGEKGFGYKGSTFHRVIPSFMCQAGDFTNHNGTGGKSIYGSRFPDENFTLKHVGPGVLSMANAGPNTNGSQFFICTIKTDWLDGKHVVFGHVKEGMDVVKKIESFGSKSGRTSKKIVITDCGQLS
UniProt P15104: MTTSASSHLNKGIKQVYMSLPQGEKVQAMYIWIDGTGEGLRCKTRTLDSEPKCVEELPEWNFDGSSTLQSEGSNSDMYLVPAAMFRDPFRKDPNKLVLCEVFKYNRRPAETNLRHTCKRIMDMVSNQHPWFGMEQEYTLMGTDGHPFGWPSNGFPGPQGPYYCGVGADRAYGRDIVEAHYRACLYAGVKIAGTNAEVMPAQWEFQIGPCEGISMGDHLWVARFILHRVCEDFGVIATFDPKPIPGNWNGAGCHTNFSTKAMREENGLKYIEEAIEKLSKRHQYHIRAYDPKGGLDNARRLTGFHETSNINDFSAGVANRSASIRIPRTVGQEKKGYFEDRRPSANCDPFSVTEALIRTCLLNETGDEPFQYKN

Holding throughout (test): affinity purification with mass spectrometry; anti-HA IP (Dynabeads-Protein G) from 1 mg clarified mitochondrial lysate of transfected HEK293T cells, overnight at 4 °C; lysis buffer 10 mM Tris-HCl pH 7.5, 50 mM NaCl, 1 mM EDTA, 1 mM DTT, 10% glycerol, 10 mM sodium molybdate, 0.1% Triton X-100; LC/MS/MS; list filtered for mitochondrial proteins with 4 or more unique peptides

In experiment [1] the target is TRAP1 mutant ΔStrap with C-terminal HA tag (human) (UniProt Q12931).
The target of experiment [2] is WT TRAP1 with C-terminal HA tag (pcDNA3.1 (+) MTS-TRAP1-HA) (human) (UniProt Q12931).
The target of experiment [3] is T1, TRAP1 mutant E115A/R402A with C-terminal HA tag (human) (UniProt Q12931).
T1 sequence: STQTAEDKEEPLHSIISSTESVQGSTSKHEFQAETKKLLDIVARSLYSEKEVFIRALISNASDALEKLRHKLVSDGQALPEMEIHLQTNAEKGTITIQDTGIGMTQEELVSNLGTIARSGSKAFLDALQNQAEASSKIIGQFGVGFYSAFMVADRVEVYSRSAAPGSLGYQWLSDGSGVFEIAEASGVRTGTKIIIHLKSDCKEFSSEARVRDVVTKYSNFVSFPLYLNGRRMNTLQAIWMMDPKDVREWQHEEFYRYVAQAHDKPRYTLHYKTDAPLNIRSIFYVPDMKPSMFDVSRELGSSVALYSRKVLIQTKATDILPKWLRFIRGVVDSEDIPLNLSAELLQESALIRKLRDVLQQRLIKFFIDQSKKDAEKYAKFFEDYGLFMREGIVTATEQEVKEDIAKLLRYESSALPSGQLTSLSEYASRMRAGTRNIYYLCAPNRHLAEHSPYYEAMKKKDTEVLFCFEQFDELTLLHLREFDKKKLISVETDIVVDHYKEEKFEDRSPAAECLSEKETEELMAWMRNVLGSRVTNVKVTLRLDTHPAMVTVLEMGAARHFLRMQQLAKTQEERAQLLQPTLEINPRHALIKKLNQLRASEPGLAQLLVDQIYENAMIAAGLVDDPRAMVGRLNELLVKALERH

These are yes or no findings as the source states them, for the method shown. In cells and extracts the contact can be indirect. Here binding means that the protein was enriched with, or labelled near, the bait; the list need not be complete. No binding means not detected with the bait. For some of these results: Tags and fused reporters may be left off the sequences shown.

As for “ECHA (from UniProt P40939 37-763) (enzyme)”, the binding result in experiment [1], in experiment [2] and in experiment [3] was “binds” each time.
As to HTRA2 (from UniProt O43464), the binding result in experiment [1], in experiment [2] and in experiment [3] was “no binding” each time.
In the case of PINK1 (from UniProt Q9BXM7 78-581), the binding result in experiment [1] and in experiment [3] was “no binding” each time.
In the case of “SDHA (from UniProt P31040 43-664) (enzyme)”, the binding entry in experiment [2] is on record as “binds”.
With “cyclophilin D (from UniProt P30405 30-207)”, the binding result in experiment [1] and in experiment [3] was “no binding” in each case.
Regarding “glutamate dehydrogenase (human (endogenous in HEK293T)) (enzyme)”, in experiment [3], the binding entry is “no binding”.
As for “glutaminase (human (endogenous in HEK293T)) (enzyme)”, the binding entry in experiment [3] is on record as “no binding”.
With “glutamine synthase (from UniProt P15104 1-373) (enzyme)”, the binding result in experiment [1], in experiment [2] and in experiment [3] was “no binding” in each case.
